# In US9730928B2, “Trizol-1-OL analogs anti-retroviral latency drugs” (priority 2013, dated 2017):
# “Also recorded” adds a separate entry of the source.
# Legend:
# [1] = test system: latent HIV-1; test: Reactivation of latent HIV-1 in latently infected cultured TCM (GFP / p24Gag by flow cytometry); assay type: cell-based; conditions: panel of 7 derivatives of HOBt (FIG. 2D)
# Excerpt: A novel primary cell model for the study of HIV-1 latency was adapted so as to be suitable for high-throughput screening (HTS) of new compounds that may reactivate HIV-1 from its latency state (Bosque and Planelles, 2009; Bosque and Planelles, 2010; and patent application: Methods and compositions relating to viral latency, Planelles V, Basque A, U.S. Patent Application 2010/0291067 A1, November 2010).
# To facilitate HTS, the nef gene was replaced with that encoding the green fluorescent protein (GFP). It was confirmed that deletion of nef has no effect in latency/reactivation (Bosque and Planelles, 2009) and that using GFP provides a faster, more economical, and equally sensitive, as compared to intracellular p24 detection, readout.
# The reactivation experiments were modified to be performed in 96-well plates, utilizing 100,000 cells per well. […] Analysis for each well includes (a) green fluorescence as a direct indicator of viral reactivation; and (b) forward and side scatter as general measures of cell morphology, which is a gross indication of viability.
# Latently infected cells were generated using healthy, uninfected DONOR 78 cells that were infected with DHIV virus. Reactivation was monitored by analysis of GFP by Flow Cytometry 72 hours after stimulation. […]
# [2] = test system: pSTAT5; test: pSTAT5 levels 48 h after IL-2 plus derivatives, flow cytometer; assay type: cell-based; conditions: with IL-2, 48 h
# Description: Cells were treated with IL-2 and several derivatives of HOAt. Levels of pSTAT5 were measured 48 h later by flow cytometer.
smiles,measurement,setting,value
CN(C)C(n1n[n+]([O-])c2ncccc21)=[N+](C)C.F[P-](F)(F)(F)(F)F [HATU],ability to induce viral reactivation compared to the original hit HOBt,[1],able to induce viral reactivation in a dose dependent manner and with increased efficiency; also recorded: increased ability to induce viral reactivation in a dose dependent manner
same,maintenance of pSTAT5 levels,[2],maintain pSTAT5 levels in a dose dependent manner
